15 targets from the supplement of paper PMC10849652 can be followed below.

Amino acid sequences for entries named in this document (tags omitted). A change or cut given only in a name is not applied to a line headed by its entry.
UniProt Q96HD1: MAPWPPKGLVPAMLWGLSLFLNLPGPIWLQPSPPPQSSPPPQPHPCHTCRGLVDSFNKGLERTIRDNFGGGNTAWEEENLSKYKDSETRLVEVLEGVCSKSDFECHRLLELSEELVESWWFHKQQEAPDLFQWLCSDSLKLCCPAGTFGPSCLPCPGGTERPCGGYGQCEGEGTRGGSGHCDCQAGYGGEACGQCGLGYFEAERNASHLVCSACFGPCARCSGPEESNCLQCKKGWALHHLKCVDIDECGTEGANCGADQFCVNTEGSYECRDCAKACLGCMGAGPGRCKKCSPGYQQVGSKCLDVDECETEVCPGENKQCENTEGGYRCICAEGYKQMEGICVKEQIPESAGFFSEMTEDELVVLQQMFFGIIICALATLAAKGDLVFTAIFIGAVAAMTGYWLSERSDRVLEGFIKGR
UniProt Q9NX08, whole entry, looked up: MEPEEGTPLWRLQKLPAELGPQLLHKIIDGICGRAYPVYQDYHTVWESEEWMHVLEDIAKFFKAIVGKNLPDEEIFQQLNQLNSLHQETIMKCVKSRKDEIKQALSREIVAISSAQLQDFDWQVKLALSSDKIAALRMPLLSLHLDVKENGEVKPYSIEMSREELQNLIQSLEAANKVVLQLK
UniProt Q14019: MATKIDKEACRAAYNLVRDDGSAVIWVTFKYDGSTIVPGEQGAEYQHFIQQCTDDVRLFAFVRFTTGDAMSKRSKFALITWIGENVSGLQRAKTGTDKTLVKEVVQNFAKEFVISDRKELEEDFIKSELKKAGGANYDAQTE
UniProt Q9NQ92: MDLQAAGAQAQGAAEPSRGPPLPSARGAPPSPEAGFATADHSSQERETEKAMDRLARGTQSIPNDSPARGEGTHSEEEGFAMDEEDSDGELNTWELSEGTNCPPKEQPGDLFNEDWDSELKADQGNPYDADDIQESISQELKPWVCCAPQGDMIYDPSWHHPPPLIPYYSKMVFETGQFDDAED
UniProt P15954, whole entry, looked up: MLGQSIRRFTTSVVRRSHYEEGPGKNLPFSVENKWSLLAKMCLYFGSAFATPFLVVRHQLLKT
UniProt Q86VX2, whole entry, looked up: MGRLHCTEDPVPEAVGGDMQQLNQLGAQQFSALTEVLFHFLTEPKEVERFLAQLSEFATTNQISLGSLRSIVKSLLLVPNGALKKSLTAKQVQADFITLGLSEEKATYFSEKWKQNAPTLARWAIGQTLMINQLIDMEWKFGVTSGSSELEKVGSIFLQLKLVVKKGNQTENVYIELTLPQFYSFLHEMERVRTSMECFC
UniProt Q96I36: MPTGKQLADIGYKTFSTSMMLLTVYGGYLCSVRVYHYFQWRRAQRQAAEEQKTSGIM
UniProt P41240: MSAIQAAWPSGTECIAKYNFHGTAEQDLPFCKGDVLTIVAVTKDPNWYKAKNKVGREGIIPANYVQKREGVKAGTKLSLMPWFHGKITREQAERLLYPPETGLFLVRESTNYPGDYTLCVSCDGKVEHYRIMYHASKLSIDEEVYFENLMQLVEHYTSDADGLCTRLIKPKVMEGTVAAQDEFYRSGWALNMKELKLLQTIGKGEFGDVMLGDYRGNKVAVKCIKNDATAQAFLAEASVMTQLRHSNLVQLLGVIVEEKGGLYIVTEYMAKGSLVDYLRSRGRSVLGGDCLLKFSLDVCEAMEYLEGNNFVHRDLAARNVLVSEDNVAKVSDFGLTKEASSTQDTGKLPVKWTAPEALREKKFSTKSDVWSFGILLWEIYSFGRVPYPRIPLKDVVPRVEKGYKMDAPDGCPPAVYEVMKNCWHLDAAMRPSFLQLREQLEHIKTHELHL
UniProt Q9Y6G5, whole entry, looked up: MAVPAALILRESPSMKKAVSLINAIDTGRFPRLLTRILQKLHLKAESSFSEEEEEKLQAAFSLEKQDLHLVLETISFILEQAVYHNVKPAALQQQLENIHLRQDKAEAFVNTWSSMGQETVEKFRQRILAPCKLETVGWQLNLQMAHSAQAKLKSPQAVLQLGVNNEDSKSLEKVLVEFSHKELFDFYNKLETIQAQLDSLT
UniProt Q03060: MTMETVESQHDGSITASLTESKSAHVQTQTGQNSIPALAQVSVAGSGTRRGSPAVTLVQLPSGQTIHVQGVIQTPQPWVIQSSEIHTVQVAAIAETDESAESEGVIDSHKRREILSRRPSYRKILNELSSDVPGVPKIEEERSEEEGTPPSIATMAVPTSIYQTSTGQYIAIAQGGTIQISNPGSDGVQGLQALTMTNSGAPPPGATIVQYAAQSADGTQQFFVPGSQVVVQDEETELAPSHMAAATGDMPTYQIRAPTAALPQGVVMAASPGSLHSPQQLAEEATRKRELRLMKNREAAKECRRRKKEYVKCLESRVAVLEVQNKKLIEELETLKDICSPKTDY
UniProt Q99829: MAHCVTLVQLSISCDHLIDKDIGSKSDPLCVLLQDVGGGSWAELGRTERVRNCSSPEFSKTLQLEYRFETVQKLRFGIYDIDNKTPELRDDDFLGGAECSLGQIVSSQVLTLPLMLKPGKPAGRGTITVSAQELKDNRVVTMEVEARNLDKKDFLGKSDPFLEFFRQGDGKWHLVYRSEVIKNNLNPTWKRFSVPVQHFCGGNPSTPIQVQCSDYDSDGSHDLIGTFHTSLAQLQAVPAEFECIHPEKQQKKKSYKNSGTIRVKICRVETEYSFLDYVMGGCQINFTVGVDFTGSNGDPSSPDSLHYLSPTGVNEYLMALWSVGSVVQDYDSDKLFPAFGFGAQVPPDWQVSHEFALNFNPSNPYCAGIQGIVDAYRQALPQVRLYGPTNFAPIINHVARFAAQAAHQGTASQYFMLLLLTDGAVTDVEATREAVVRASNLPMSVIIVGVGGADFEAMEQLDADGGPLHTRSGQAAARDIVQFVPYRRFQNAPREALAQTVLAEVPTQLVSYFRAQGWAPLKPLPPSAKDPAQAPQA
UniProt Q8IYK4: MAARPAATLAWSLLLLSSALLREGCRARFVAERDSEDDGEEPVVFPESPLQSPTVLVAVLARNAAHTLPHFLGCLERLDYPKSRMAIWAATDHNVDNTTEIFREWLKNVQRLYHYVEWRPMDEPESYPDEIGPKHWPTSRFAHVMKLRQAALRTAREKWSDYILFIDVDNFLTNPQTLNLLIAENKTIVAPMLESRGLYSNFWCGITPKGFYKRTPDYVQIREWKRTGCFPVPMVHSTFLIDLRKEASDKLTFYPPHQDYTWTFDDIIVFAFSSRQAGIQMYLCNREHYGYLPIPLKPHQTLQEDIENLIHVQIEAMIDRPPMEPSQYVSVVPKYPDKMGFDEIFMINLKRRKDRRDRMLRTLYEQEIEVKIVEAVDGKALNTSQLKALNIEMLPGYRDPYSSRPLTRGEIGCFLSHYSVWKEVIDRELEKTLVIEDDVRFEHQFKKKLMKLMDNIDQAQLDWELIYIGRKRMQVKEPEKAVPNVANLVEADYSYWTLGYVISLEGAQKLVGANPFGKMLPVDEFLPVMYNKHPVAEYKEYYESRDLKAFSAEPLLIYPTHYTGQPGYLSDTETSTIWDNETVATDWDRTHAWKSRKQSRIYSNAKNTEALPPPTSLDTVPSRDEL
UniProt P53618: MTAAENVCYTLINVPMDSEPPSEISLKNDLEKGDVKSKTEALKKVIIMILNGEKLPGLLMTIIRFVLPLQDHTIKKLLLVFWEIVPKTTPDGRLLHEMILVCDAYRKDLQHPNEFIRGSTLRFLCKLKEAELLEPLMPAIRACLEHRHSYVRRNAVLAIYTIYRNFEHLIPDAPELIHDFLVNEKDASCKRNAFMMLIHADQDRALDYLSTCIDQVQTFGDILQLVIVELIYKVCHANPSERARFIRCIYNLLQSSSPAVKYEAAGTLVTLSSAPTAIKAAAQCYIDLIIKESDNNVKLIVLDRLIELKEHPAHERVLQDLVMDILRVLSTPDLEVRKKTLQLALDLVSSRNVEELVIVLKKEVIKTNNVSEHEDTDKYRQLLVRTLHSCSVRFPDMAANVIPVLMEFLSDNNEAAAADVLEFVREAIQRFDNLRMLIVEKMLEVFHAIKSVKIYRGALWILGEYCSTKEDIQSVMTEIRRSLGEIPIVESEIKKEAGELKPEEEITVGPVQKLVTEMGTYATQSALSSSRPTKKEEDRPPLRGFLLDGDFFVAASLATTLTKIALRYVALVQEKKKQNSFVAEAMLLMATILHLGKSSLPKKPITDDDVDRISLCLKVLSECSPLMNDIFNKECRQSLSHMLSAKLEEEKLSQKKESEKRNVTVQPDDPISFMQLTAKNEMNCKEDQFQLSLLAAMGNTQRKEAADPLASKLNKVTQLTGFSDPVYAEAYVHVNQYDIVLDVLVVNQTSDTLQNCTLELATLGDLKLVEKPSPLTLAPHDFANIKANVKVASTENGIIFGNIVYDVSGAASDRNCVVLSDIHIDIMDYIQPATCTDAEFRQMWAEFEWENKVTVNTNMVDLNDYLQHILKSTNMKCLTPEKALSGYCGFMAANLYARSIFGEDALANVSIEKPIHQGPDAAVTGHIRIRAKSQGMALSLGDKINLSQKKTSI
UniProt Q9Y678: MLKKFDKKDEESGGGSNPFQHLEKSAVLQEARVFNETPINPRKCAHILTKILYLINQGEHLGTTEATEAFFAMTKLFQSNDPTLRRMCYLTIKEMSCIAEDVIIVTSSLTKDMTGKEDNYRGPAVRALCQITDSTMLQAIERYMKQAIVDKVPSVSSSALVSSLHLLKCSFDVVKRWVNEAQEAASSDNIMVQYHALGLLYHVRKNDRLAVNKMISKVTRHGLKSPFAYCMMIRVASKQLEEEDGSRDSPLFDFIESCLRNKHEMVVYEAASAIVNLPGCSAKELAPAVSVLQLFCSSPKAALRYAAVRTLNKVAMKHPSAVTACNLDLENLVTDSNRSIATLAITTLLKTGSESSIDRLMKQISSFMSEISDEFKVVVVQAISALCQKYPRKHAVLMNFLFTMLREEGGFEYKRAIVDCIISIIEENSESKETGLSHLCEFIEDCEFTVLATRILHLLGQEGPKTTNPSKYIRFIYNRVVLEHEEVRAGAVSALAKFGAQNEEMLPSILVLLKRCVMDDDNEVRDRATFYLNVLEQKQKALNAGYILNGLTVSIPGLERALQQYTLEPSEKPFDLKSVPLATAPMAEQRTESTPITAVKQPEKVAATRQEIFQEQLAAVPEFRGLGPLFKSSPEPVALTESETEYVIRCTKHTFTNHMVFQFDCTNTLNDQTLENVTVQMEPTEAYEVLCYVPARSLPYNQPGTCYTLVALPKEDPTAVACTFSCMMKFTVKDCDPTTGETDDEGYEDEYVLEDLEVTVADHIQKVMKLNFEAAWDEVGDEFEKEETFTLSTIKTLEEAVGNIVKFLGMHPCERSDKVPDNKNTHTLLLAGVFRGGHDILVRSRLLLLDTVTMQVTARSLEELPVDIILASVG
UniProt Q9BR76, whole entry, looked up: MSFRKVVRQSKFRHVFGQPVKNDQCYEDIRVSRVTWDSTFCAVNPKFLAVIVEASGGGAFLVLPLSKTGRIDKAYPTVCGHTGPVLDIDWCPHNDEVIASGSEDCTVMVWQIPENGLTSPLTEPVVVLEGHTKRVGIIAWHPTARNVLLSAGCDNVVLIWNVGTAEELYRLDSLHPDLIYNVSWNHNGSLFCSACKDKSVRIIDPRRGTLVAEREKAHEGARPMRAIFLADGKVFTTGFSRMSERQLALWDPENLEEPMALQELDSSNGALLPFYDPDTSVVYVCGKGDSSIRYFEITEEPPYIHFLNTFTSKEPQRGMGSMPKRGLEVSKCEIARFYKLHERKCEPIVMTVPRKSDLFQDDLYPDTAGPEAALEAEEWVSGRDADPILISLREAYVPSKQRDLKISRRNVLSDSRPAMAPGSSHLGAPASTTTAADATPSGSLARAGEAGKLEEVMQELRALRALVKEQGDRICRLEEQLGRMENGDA

Assay in all cases: log2 fold change, soluble protein after heating vs DMSO (PISA); higher = thermal stabilisation; K562 cells, 10 uM, 30 min; active = over 0.2 and 3.5 SD of the protein, either way, in both replicates (recomputed)
Compound in test [1]: CC[C@@H]1C(=O)N(C)c2cnc(Nc3ccc(C(=O)NC4CCN(C)CC4)cc3OC)nc2N1C1CCCC1
Put shortly:
(§1)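 Quantification of soluble protein used TMTpro 16plex LC-MS/MS, with channel sums equalised. Samples were the supernatant after 21,000xg for 90 min of pooled aliquots from K562 cells (2×10^6 cells/mL) treated with 10 μM compound for 30 min, heated for 3 min over 48°C-58°C, and extracted in PBS with 0.5% NP-40 at 4°C. Values, from duplicates, describe thermal stability against control samples on a log2 fold-change scale.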

Compound in test [2]: CC[C@@H]1C(=O)N(C)c2cnc(Nc3ccc(C(=O)N[C@H]4CC[C@H](N5CCN(CC6CC6)CC5)CC4)cc3OC)nc2N1C(C)C [volasertib]
The method in brief: as §1

Compound in test [3]: CC[C@H](C)N1C=C(C2=C(C=C(C=C21)C3=CN=C(C=C3)N4CCNCC4)C(=O)NCC5=C(C=C(NC5=O)C)C)C
Put shortly:
as §1

Compound in test [4]: CC[C@H](C)[C@@H](C(=O)N[C@@H]([C@@H](C)O)C(=O)N[C@@H](CC(C)C)C(=O)[C@]1(CO1)C)NC(=O)[C@H]([C@@H](C)CC)N(C)C(=O)C [epoxomicin]
Put shortly: as §1

Compound in test [5]: CCn1c(C(=O)N(C2CC2)C2CC2)cc2c3c(ncn3C)c(Nc3cc(C)n(C)n3)nc21
The method in brief: as §1

Compound in test [6]: CCn1cc(-c2ccnc3[nH]c(-c4cccc(CN(C)C)c4)cc23)c(-c2ccc(NC(=O)N(C)C)cc2)n1
The method in brief: as §1

Compound in test [7]: CN(C)CC(=O)Nc1ccc2[nH]c(=O)c3ccccc3c2c1
The method in brief: as §1

Compound in test [8]: CN(CCOC1=CC=C(C=C1)C[C@H]2C(=O)NC(=O)S2)C3=CC=CC=N3 (racemic) [rosiglitazone]
The method in brief:
as §1

Compound in test [9]: CN1C2=C(C3=C1C(=O)N(N=C3)CC4=CC(=CC=C4)N)SC(=C2)S(=O)C
Put shortly:
as §1

Compound in test [10]: CN1CCC(CNc2ccc3ncc(-c4cccc(OC(F)(F)F)c4)n3n2)CC1
Put shortly: as §1

The other results are listed elsewhere or left out.

Consider CRELD1 isoform 2 (UniProt Q96HD1), for which the log2 fold change in [1] was inactive: 0.167; in test [2], inactive: 0.025; in test [3], inactive: -0.243; in test [4] it was inactive: -0.17; in test [5], inactive: -0.137; in test [6] it was inactive: -0.091. Further, the log2 fold change was inactive: -0.183 in test [7], inactive: 0.115 in [8], inactive: -0.009 in [9] and inactive: 0.087 in test [10].
COMMD8 (UniProt Q9NX08): the log2 fold change was inactive: -0.107 in test [1]; inactive: -0.303 in test [2]; inactive: 0.07 in [3]; inactive: -0.01 in test [4]; inactive: 0.028 in test [5]; inactive: 0.045 in test [6]. Besides, the log2 fold change in test [8] was inactive: 0.006; in test [9], inactive: -0.009; in [10], inactive: -0.01.
Turning to COTL1 (UniProt Q14019), the log2 fold change in [1] was inactive: 0.009; in [2], inactive: -0.019; in test [3], inactive: 0.022; in [4], inactive: 0.011; in [5] it was inactive: 0.018; in [6] it was inactive: -0.02. In addition, the log2 fold change in [7] was inactive: 0; in test [8] it was inactive: 0.029; in test [9] it was inactive: -0.088; in test [10], inactive: -0.06.
Consider COPRS (UniProt Q9NQ92), for which the log2 fold change in [1] is inactive: 0.019; in test [2], inactive: 0.041; in test [3], inactive: 0.004; in [4] it was inactive: -0.047; in test [5], inactive: 0.011; in [6], inactive: 0.027. In addition, the log2 fold change was inactive: 0.022 in test [7], inactive: -0.012 in test [8], inactive: 0.031 in [9] and inactive: 0.044 in test [10].
On to COX7C (UniProt P15954), for which the log2 fold change in test [1] was inactive: 0.035; in [2] it was inactive: -0.163; in [3] it was inactive: -0.114; in test [4], inactive: 0.203; in test [6], inactive: 0.095; in [7], inactive: -0.058. The log2 fold change in [9] was inactive: -0.026; in [10], inactive: -0.052.
Take COMMD7 (UniProt Q86VX2): the log2 fold change in test [1] is inactive: 0.003; in [2] it was inactive: -0.169; in test [3], inactive: -0.049; in [4], inactive: -0.005; in test [5], inactive: -0.01; in [6], inactive: -0.036. Besides, the log2 fold change in [7] is inactive: 0.051; in test [8], inactive: 0.055; in test [9], inactive: -0.018; in test [10], inactive: -0.099.
Regarding COX14 (UniProt Q96I36), the log2 fold change in test [1] was inactive: -0.028; in test [2] it was inactive: -0.043; in test [3] it was inactive: -0.048; in test [4], inactive: 0.375; in [5], inactive: 0.044; in test [6], inactive: 0.055. Moreover, the log2 fold change in [8] is inactive: -0.209; in test [10] it was inactive: 0.126.
On to CSK (UniProt P41240), for which the log2 fold change in test [1] is inactive: -0.132; in test [2] it was active: -0.306; in test [3] it was inactive: 0.05; in [4] it was inactive: 0.014; in test [6], inactive: -0.075; in test [7], inactive: 0.024. The log2 fold change was inactive: -0.011 in [9] and inactive: -0.147 in [10].
As to COMMD10 (UniProt Q9Y6G5), the log2 fold change in test [1] is inactive: 0.022; in test [2] it was inactive: -0.008; in [3], inactive: 0.034; in [4], inactive: 0.004; in test [5] it was inactive: -0.03; in [6] it was inactive: -0.06. Moreover, the log2 fold change in [7] is inactive: 0.065; in test [8], inactive: -0.014; in [9], inactive: -0.075; in test [10], inactive: 0.065.
Regarding CREM isoform 1 (UniProt Q03060), the log2 fold change in test [1] was inactive: 0.045; in test [2], inactive: 0.006; in test [3] it was inactive: 0.056; in [4] it was inactive: -0.025; in test [5], inactive: 0.06; in [6] it was inactive: -0.111. In addition, the log2 fold change in test [7] is inactive: -0.052; in test [8], inactive: 0.022; in test [9] it was inactive: -0.109; in test [10] it was inactive: 0.095.
As for CPNE1 (UniProt Q99829), the log2 fold change was inactive: -0.018 in test [1]; inactive: -0.035 in test [2]; inactive: -0.012 in [3]; inactive: 0.049 in [4]; inactive: -0.004 in [5]; inactive: -0.102 in test [6]. Also, the log2 fold change in [7] was inactive: -0.032; in test [8], inactive: 0.018; in test [9] it was inactive: -0.055; in [10], inactive: 0.063.
COLGALT2 (UniProt Q8IYK4): the log2 fold change is inactive: 0.072 in test [1]; inactive: 0.013 in [2]; inactive: -0.009 in test [3]; inactive: -0.019 in test [4]; inactive: 0.049 in [5]; inactive: 0.108 in [6]. The log2 fold change was inactive: -0.084 in test [7], inactive: -0.017 in test [8], inactive: 0.043 in [9] and inactive: 0.163 in test [10].
With COPB1 (UniProt P53618), the log2 fold change is inactive: -0.003 in [1]; inactive: -0.172 in [2]; inactive: 0.018 in [3]; inactive: 0.018 in test [4]; inactive: -0.046 in [5]; inactive: -0.035 in test [6]. Moreover, the log2 fold change in test [7] was inactive: 0.025; in [8], inactive: 0.045; in test [9], inactive: -0.026; in test [10] it was inactive: -0.002.
Regarding COPG1 (UniProt Q9Y678), the log2 fold change was inactive: -0.019 in test [1]; inactive: -0.112 in test [2]; inactive: 0.021 in test [3]; inactive: 0 in test [4]; inactive: -0.031 in [5]; inactive: -0.029 in [6]. Further, the log2 fold change in test [7] was inactive: 0.002; in test [8], inactive: 0.009; in test [9] it was inactive: -0.016; in test [10], inactive: -0.004.
On to CORO1B (UniProt Q9BR76), for which the log2 fold change in test [1] is inactive: -0.046; in test [2] it was inactive: -0.063; in test [3], inactive: 0.033; in [4], inactive: 0.019; in [5] it was inactive: -0.033; in [6] it was inactive: -0.052. The log2 fold change in [7] was inactive: 0.01; in test [8], inactive: 0.023; in [9], inactive: -0.046; in [10], inactive: 0.005.
